These results are taken from publication PMC11761205.

Amino acid sequences for entries named in this document (tags omitted).
UniProt P61006: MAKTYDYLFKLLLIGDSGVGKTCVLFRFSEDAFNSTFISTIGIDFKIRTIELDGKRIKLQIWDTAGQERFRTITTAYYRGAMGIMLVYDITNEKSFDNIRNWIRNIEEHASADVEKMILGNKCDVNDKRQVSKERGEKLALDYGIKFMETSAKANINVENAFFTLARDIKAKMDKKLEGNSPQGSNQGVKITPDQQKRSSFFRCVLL
UniProt P08151: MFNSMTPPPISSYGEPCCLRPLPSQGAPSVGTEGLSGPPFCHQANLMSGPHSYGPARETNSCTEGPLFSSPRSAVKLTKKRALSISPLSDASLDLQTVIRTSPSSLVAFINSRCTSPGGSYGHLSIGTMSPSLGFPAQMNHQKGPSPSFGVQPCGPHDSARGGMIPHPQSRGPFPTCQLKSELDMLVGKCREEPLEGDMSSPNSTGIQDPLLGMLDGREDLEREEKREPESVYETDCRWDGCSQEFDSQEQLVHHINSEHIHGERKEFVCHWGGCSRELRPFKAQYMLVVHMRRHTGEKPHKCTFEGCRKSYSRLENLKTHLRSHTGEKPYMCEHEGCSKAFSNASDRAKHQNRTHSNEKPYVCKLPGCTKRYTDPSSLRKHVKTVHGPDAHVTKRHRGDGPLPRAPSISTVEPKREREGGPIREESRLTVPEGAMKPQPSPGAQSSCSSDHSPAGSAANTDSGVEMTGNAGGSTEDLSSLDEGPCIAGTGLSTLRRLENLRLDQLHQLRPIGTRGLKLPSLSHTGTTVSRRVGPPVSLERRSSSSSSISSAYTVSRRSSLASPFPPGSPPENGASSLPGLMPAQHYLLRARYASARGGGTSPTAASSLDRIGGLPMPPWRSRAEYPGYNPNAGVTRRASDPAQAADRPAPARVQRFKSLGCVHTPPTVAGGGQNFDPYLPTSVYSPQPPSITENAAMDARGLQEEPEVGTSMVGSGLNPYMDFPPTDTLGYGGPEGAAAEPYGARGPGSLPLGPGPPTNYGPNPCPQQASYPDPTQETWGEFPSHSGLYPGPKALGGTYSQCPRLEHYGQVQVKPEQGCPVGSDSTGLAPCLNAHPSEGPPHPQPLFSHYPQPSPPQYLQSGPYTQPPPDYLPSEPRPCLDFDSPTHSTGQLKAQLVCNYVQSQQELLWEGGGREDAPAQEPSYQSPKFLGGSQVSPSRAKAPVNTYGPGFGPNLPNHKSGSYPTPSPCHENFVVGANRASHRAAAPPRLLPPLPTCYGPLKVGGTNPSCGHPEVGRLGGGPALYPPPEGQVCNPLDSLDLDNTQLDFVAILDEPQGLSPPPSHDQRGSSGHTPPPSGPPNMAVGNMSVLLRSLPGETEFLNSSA

These are yes or no findings as the source states them, for the method shown. In cells and extracts the contact can be indirect. Some results given as binding are weak or reduced against the parent protein; the word gives no strength. For some of these results: Where a sequence is shown, tags or fusion partners need not be part of it.

Assay [1] has as its target T1, G protein-coupled receptor 137 (human (endogenous in SK-OV-3 and A2780)) (UniProt Q96N19).
T1 sequence: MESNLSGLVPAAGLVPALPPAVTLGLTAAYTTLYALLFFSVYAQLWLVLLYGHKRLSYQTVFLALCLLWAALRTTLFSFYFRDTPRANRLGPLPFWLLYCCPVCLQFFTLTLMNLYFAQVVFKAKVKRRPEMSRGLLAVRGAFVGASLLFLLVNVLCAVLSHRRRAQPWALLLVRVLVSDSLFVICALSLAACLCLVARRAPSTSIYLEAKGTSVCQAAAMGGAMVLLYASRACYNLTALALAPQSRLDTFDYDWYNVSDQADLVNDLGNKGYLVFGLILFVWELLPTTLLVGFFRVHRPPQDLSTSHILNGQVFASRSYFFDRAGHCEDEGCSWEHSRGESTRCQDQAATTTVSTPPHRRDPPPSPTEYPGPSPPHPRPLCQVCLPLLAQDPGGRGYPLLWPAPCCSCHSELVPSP
The assay can be described thus: co-IP; endogenous proteins in SK-OV-3 and A2780 cells; IP: RAB8A, WB: GPR137, and reciprocal IP: GPR137, WB: RAB8A (SK-OV-3); IgG as negative control; IP lysis buffer 100 mM NaCl, 50 mM Tris-HCl pH 8.0, 5 mM EDTA, 1% Brij35.

For assay [2], the target named is T2, Suppressor of Fused (human (endogenous in SK-OV-3 and HO8910)) (UniProt Q9UMX1).
T2 sequence: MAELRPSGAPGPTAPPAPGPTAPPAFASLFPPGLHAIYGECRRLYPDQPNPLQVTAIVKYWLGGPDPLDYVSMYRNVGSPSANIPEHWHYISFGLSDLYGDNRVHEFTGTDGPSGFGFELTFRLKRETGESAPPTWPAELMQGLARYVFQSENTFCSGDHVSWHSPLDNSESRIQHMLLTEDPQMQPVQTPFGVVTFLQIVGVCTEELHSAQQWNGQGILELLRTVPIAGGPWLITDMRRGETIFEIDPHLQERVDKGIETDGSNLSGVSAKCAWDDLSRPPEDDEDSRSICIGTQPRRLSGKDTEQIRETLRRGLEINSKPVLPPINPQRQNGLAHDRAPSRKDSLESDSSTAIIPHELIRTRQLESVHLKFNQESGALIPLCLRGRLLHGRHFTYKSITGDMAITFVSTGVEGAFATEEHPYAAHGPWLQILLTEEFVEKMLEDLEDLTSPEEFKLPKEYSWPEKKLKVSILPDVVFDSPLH
Kind of assay: co-IP; endogenous proteins; IP: SuFu, WB: GLI1; SK-OV-3 cells with RAB8A shRNA or scrambled shRNA, HO8910 cells with ectopic Flag-RAB8A or empty vector; IgG as negative control; IP lysis buffer 100 mM NaCl, 50 mM Tris-HCl pH 8.0, 5 mM EDTA, 1% Brij35.

In assay [3] the target is Ras-related protein Rab-8A (human (endogenous in SK-OV-3 and A2780)) (UniProt P61006). Kind of assay: co-IP; endogenous proteins in SK-OV-3 and A2780 cells; IP: RAB8A, WB: GPR137, and reciprocal IP: GPR137, WB: RAB8A (SK-OV-3); IgG as negative control; IP lysis buffer 100 mM NaCl, 50 mM Tris-HCl pH 8.0, 5 mM EDTA, 1% Brij35.
Assay [4] shares this target. Kind of assay: co-IP; endogenous proteins in the separated membrane fraction of SK-OV-3 and A2780 cells; IP: RAB8A, WB: GPR137; IgG as negative control, EZRIN as loading control.

Turning to “Ras-related protein Rab-8A (from UniProt P61006 1-207)”, the binding entry in assay [1] was “no binding”.
As to GLI1 (from UniProt P08151 1-1106), in assay [2], the binding entry is listed as “binds”.

B1: G protein-coupled receptor 137 (receptor, UniProt Q96N19 1-417)
chain: MESNLSGLVPAAGLVPALPPAVTLGLTAAYTTLYALLFFSVYAQLWLVLLYGHKRLSYQTVFLALCLLWAALRTTLFSFYFRDTPRANRLGPLPFWLLYCCPVCLQFFTLTLMNLYFAQVVFKAKVKRRPEMSRGLLAVRGAFVGASLLFLLVNVLCAVLSHRRRAQPWALLLVRVLVSDSLFVICALSLAACLCLVARRAPSTSIYLEAKGTSVCQAAAMGGAMVLLYASRACYNLTALALAPQSRLDTFDYDWYNVSDQADLVNDLGNKGYLVFGLILFVWELLPTTLLVGFFRVHRPPQDLSTSHILNGQVFASRSYFFDRAGHCEDEGCSWEHSRGESTRCQDQAATTTVSTPPHRRDPPPSPTEYPGPSPPHPRPLCQVCLPLLAQDPGGRGYPLLWPAPCCSCHSELVPSP
As for B1, the binding result in assay [3] and in assay [4] was “no binding” each time.
